Measurements from patent publication US20250221952A1, “METHODS AND COMPOSITIONS FOR LARGE MODIFICATIONS OF ATP OUTPUT BY INNER MITOCHONDRIAL MEMBRANE LATCHING” (priority 2025, published 2025).
“Also recorded” adds a separate entry of the source. At least one compound was matched to its structure with a doubt left.

System: mitochondrial ATP output
Experiment: Bicep curls to failure (reps-to-failure) as proxy for ATP output
Assay type: in vivo, human

CC(=O)C(=O)O [Pyruvate]
latching behaviour as described in words: did not latch; also recorded: non-latcher | reps-to-failure after dose (FIG. 10 point 1006, pyruvic acid neutralized to sodium pyruvate, from ten reps, falls off quickly to near baseline): twenty-five
